Among the data in paper PMC8173141 are binding values, retold here.

Amino acid sequences for entries named in this document (tags omitted).
UniProt C3VPR6: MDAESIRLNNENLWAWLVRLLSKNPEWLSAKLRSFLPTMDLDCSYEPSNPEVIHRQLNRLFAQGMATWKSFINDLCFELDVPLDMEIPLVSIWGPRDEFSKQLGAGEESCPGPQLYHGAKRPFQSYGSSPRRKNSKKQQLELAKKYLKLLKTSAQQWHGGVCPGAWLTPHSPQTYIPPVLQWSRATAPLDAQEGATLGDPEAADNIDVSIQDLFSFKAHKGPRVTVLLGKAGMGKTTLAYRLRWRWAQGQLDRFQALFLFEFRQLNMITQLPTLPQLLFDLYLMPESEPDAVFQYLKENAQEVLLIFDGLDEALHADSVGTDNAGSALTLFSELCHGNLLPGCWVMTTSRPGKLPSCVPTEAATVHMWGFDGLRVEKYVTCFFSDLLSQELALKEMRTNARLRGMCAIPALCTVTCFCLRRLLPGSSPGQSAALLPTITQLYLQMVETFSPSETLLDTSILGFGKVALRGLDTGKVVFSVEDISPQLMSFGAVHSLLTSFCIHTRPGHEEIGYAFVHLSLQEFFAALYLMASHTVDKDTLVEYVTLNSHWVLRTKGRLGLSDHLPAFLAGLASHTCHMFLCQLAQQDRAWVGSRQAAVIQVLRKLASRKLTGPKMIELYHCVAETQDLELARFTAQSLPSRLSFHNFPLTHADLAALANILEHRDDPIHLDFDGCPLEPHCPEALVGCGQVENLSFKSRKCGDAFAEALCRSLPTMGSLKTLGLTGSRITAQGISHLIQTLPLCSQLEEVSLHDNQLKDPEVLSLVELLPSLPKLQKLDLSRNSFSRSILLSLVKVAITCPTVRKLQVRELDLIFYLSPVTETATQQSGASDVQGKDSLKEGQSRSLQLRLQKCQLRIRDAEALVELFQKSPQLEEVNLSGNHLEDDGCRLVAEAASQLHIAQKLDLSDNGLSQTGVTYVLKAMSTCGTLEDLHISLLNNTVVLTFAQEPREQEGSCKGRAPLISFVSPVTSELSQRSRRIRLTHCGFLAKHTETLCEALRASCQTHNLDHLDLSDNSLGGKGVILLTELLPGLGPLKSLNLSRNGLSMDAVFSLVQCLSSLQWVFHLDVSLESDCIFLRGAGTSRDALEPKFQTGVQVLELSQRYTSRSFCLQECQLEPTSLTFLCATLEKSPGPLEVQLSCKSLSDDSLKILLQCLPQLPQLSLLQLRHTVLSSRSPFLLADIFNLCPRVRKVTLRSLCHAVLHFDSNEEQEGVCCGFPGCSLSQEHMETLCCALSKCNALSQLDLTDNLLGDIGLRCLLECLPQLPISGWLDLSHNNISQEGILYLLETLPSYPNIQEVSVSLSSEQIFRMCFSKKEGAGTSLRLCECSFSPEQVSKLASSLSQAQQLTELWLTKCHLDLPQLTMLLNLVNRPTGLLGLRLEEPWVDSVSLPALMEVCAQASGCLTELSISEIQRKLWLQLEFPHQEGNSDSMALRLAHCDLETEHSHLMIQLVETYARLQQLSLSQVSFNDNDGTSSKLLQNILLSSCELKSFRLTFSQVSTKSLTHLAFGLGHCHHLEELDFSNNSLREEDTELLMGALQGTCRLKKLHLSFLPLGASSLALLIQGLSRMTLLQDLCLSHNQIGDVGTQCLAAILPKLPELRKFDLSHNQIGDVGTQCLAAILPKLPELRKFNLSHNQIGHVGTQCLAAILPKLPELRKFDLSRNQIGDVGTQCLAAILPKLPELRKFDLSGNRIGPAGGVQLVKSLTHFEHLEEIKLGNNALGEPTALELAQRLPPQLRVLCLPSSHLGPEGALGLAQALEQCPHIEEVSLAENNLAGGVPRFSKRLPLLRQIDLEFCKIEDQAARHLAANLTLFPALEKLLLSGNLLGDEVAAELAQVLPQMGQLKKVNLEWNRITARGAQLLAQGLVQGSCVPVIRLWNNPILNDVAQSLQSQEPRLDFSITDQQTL
UniProt Q8R4B8: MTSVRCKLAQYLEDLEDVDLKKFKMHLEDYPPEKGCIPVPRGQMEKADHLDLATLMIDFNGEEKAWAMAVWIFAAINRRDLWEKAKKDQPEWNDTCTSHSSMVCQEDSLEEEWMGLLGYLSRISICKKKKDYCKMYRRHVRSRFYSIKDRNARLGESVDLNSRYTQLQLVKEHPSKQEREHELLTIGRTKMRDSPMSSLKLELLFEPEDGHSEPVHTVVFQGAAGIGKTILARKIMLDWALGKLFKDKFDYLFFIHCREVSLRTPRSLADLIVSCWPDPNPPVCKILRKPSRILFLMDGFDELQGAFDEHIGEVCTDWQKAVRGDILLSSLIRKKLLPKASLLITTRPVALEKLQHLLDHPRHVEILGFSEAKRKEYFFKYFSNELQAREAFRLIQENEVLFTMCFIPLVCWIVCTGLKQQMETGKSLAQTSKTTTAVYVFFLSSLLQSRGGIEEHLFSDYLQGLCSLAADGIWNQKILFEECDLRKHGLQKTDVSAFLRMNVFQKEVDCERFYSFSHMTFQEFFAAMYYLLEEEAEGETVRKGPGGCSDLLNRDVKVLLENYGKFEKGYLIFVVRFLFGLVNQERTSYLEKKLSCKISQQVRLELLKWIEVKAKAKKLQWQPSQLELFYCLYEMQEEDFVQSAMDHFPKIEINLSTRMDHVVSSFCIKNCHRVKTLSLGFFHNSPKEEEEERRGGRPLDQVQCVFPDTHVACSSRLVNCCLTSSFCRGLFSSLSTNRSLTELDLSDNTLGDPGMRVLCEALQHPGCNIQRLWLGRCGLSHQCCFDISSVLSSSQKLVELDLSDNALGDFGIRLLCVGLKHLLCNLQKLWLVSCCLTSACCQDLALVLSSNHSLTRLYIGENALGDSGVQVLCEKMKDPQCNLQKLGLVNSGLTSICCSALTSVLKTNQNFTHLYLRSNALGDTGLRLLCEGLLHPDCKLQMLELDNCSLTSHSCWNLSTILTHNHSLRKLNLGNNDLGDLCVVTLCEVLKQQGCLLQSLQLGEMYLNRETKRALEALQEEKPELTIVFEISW
UniProt Q3UP24: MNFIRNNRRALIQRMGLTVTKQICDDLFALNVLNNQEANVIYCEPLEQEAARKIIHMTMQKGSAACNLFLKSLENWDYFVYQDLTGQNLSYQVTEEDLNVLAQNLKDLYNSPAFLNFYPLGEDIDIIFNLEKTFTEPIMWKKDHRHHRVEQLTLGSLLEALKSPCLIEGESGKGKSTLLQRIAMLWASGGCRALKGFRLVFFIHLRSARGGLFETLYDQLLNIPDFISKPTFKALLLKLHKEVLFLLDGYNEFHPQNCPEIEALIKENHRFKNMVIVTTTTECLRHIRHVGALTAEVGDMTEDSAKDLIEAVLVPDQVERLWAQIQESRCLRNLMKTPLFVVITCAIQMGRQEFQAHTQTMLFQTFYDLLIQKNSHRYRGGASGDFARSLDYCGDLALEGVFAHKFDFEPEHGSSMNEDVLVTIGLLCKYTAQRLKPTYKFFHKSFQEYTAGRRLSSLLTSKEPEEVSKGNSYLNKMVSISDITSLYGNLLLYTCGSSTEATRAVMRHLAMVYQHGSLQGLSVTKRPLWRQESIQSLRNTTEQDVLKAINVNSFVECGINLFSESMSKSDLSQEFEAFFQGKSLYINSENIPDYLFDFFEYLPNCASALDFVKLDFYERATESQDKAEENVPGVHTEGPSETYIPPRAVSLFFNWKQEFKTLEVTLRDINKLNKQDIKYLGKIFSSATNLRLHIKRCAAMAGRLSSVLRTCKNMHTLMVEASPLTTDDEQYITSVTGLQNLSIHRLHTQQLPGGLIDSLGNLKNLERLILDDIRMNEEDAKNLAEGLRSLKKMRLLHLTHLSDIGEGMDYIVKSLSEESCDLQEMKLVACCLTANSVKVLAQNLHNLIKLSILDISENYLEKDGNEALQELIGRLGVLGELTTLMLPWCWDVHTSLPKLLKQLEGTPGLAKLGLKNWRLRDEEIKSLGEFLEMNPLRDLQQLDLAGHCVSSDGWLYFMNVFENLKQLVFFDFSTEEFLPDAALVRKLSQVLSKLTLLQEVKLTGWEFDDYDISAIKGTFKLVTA

Results are given in words; binding and its absence hold for the method and conditions named. Binding seen in cells or lysates may run through a third protein. Some entries that bind do so weakly or less than the wild type.

For the assay, the target named is NOD-, LRR- and CARD-containing 5 (NLRC5) (mouse (endogenous in BV2)) (UniProt C3VPR6). Put plainly: co-IP; BV2 cell lysate (cells subjected to OGDR); anti-NLRC5 or control mouse IgG overnight at 4°C, Protein A/G-agarose beads 3 h, washed three times with cell lysis buffer, western blot.

Turning to NLRP3 (from UniProt Q8R4B8 1-1033), the binding result is reported as “binds”.
In the case of NLRC4 (from UniProt Q3UP24 1-1024), the binding entry is reported as “binds”.
